These are yes or no findings as the source states them, for the method shown. Binding seen in cells or lysates may run through a third protein. Some binding calls cover weakened binding; strength is not graded here.
Experiments:
[1] = biological target: CD18 (human (endogenous in primary neutrophils and NB4)) (UniProt P05107); assay: co-IP; CD18 precipitated with antibody IB4 on Protein G Dynabeads from lysates of human primary neutrophils (two donors) under resting conditions, overnight 4°C; immunoblot for CD18 and SKAP2
[2] = biological target: CD18 (human (endogenous in primary neutrophils and NB4)) (UniProt P05107); assay: co-IP; CD18 precipitated with antibody IB4 on Protein G Dynabeads from lysates of NB4 Scr, KINDLIN3KO or SKAP2KO neutrophils at steady state, overnight 4°C; immunoblot for CD18, KINDLIN3, TALIN1 and SKAP2

Amino acid sequences for entries named in this document (tags omitted). Residues count along the entry.
UniProt P05107, residues 23-769: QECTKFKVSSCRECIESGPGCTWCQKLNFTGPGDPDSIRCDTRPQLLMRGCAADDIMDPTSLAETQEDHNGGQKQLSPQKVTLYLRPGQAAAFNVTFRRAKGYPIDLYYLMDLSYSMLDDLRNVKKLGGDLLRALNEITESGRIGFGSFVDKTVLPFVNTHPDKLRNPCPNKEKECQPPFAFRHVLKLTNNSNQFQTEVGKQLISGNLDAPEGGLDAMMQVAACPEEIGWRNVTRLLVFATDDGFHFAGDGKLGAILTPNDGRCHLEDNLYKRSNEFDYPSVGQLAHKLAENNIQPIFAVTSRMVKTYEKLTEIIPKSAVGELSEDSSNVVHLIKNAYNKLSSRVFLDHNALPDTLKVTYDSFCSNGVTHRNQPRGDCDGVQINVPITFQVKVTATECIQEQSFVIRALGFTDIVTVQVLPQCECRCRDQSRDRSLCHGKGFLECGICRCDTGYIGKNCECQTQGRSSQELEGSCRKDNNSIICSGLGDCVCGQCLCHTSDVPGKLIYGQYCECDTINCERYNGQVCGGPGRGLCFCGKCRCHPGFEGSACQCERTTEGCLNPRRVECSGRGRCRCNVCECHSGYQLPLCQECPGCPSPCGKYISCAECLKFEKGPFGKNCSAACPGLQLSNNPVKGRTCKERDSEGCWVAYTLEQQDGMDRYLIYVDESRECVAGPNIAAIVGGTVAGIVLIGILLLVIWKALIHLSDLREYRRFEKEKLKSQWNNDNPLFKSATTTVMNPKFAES
UniProt O75563: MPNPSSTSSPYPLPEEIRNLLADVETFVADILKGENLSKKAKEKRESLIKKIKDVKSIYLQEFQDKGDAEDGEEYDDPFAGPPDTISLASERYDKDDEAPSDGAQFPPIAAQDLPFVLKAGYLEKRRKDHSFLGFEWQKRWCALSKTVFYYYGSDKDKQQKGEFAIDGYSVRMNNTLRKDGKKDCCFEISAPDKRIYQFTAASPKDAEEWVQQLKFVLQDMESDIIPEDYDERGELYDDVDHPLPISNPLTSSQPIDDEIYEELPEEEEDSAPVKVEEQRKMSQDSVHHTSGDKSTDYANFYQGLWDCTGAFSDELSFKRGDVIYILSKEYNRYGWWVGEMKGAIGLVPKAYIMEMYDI

- binding [1]: binds
- binding [2]: binds
Substance: Src kinase-associated phosphoprotein 2 (SKAP2) (from UniProt O75563 1-359)

Reference: PMC10937362
